Measurements from PubChem BioAssay AID2098 (Broad Institute, 2009).
Screen size: about 300,000 compounds; about 2,300 (0.77%) were called active. The inconclusive results got no clear call from the source; some entries with a clear call stand among them for comparison.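 The calls were made as follows: active = more than half of replicate wells show activity change below -50%, luminescence cut by over half; inconclusive = some wells, but at most half, below -50%; inactive = no replicate well below -50%.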

Assay: HSF1 inhibitors in luciferase reporter cells, primary screen, cell-based, NIH3T3, luminescence (AID 2098);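 also: luciferase reports HSF-1 transcriptional activity via heat shock element; 0% = median of DMSO wells and -100% = zero luminescence signal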
Settings: NIH3T3-HGL HSE-luciferase, MG132-induced, luminescence 8 h; active compounds read low; screened at 7.5 µM (by protocol)
In the case of `CC(C)(C)c1ccc(Oc2ccc(NC(=O)c3ccco3)cn2)cc1`, the activity change, negative = inhibition is reported as inconclusive: -50%.
With `CC1CCN(CC(=O)NC2CCCCC2)CC1` the activity change, negative = inhibition was inconclusive: -49.4%.
In the case of `CNC(=O)/C(C#N)=C/c1ccc(-c2ccc(OC)cc2[N+](=O)[O-])o1`, the activity change, negative = inhibition is reported as active: -89.3%.
For `CC1Cc2ccccc2N1CC(=O)NC(=O)NC1CCCCC1` (stereo unspecified), the activity change, negative = inhibition was inconclusive: -48.9%.
For `O=C(Cc1ccccc1)Nc1nc2ccccc2s1`, the activity change, negative = inhibition was inconclusive: -52.6%.
For `O=c1c(Cl)c(Cl)cnn1Cc1nnc(-c2ccccc2Br)o1`, the activity change, negative = inhibition was inconclusive: -68.5%.
With `O=C(Oc1cc(=O)oc2c1c(=O)n1c3c(cccc23)CC1)c1ccc(F)cc1` the activity change, negative = inhibition was active: -67.3%.
For `CC1=NN(C(N)=S)C(C)(C)C1`, the activity change, negative = inhibition was active: -55.3%.
With `Cc1c(C(=O)Nc2ccccc2C(=O)N2CCCC2)cccc1[N+](=O)[O-]` the activity change, negative = inhibition was inconclusive: -33.5%.
With `O=C(CCl)Nc1ccc(-c2ccccc2)cc1` the activity change, negative = inhibition was inconclusive: -47.8%.
With `O=C(NC(=S)N1CCCCCC1)c1ccccc1Cl` the activity change, negative = inhibition was inconclusive: -47.6%.
With `OCCCNc1cc(-c2ccnc(Nc3cccc(Cl)c3)n2)ccn1` the activity change, negative = inhibition was active: -58.3%.
With `CC[n+]1c(/C=C2\Sc3ccccc3N2C)ccc2cccc(C)c21` the activity change, negative = inhibition was inconclusive: -8.79%.
With `O=C(N/N=C/c1ccc(F)cc1)c1ccc(OCc2ccccc2)cc1` the activity change, negative = inhibition was active: -75%.
With `CC(C)c1nc(SCC(=O)c2ccc(F)cc2)c2ccccc2n1` the activity change, negative = inhibition was inconclusive: -50.5%.
With `CCCC(=O)c1ccc(N2CCCCCC2)c(F)c1` the activity change, negative = inhibition was inactive: 21.3%.
In the case of `COc1ccccc1NC(=O)c1ccc([N+](=O)[O-])o1`, the activity change, negative = inhibition is reported as active: -85.6%.
In the case of `COCCn1c(C)cc(C(=O)COC(=O)c2ccccc2Br)c1C`, the activity change, negative = inhibition is reported as active: -90.1%.
For `COc1ccc(Nc2c(C)cccc2C)cc1`, the activity change, negative = inhibition was inactive: -1.91%.
For `O=C(Nc1ccc2c(c1)OCCO2)N1CCOCC1`, the activity change, negative = inhibition was inconclusive: -53.1%.
With `CCn1c2ccccc2n2c(=O)c(=O)n(CC(=O)Nc3ccc(C(C)C)cc3)nc12` the activity change, negative = inhibition was inconclusive: -52.6%.
For `CCCCNC(=O)CSc1nc2ccc(NC(=O)CSc3nnc(COc4ccccc4C)n3C)cc2s1`, the activity change, negative = inhibition was inconclusive: -43.2%.
With `NC(=O)c1c(NC(=O)C2COc3ccccc3O2)sc2c1CCN(Cc1ccccc1)C2` (stereo unspecified) the activity change, negative = inhibition was inconclusive: -28.7%.
In the case of `COc1ccc(C)c2sc(N(CCCN(C)C)C(=O)c3ccc(S(=O)(=O)N4CCc5ccccc5C4)cc3)nc12`, the activity change, negative = inhibition is reported as inconclusive: -33.2%.
For `O=C(N/N=C/c1ccc2nccnc2c1)c1ccccc1O`, the activity change, negative = inhibition was inactive: 3.24%.
For `CC1(C)CC(=O)C2=C(C1)N(c1ccc(F)cc1)C(=O)CC2c1ccccc1` (stereo unspecified), the activity change, negative = inhibition was inconclusive: -51.1%.
In the case of `O=C(c1ccc(-c2ccccc2)c(F)c1)C1CCCN(C(=O)c2cncs2)C1` (stereo unspecified), the activity change, negative = inhibition is reported as inconclusive: -47.1%.
With `O=[N+]([O-])/C(N=Nc1ccccc1)=N\Nc1ccccc1` the activity change, negative = inhibition was inconclusive: -25.1%.
For `Cc1cc(NC(=O)COC(=O)[C@H](C)NC(=O)c2ccccc2)no1`, the activity change, negative = inhibition was inconclusive: -50.7%.
In the case of `O=[N+]([O-])c1ccc(/C=N/NC(=S)Nc2ccc(Cl)cc2Cl)s1`, the activity change, negative = inhibition is reported as inconclusive: -48.3%.
For `CCc1cccc(NC(=O)C2CCCN(S(=O)(=O)c3cccs3)C2)c1` (stereo unspecified), the activity change, negative = inhibition was active: -73.1%.
For `Cc1ccc(NC(=O)CSCC(=O)NCc2ccco2)cc1`, the activity change, negative = inhibition was inconclusive: -29.6%.
In the case of `c1ccc2c(c1)OCC(c1csc3ncnc(N4CCOCC4)c13)O2` (stereo unspecified), the activity change, negative = inhibition is reported as active: -56.6%.
For `O=C(Cn1[nH]c(=O)c2ccccc2c1=O)OCC(=O)c1ccccc1Cl`, the activity change, negative = inhibition was inconclusive: -50.6%.
For `Cn1c(NC(=O)c2ccccc2NC(=O)C(C)(C)C)nc2ccccc21`, the activity change, negative = inhibition was inconclusive: -50.5%.
In the case of `O=C(COc1ccc(F)cc1)Nc1cc(Cl)ccc1-n1cncn1`, the activity change, negative = inhibition is reported as inconclusive: -48.9%.
In the case of `O=C(O)c1ccccc1-c1ccccc1C(=O)Nc1ccc(F)cc1`, the activity change, negative = inhibition is reported as inactive: -1.87%.
With `COc1ccc(NC(=O)c2cc(C(C)C)on2)c(OC)c1` the activity change, negative = inhibition was inactive: 9.03%.
With `Cc1cc(/C=C(\C#N)C(=O)NCc2ccco2)c(C)[nH]1` the activity change, negative = inhibition was inactive: 2.34%.
With `O=C(CCC(=O)N1CCCC1)Nc1ccc(Cl)c(Cl)c1` the activity change, negative = inhibition was inactive: 4.35%.
For `Nc1ncnc2nc(N3CCN(C(=O)c4ccccc4)CC3)[nH]c12`, the activity change, negative = inhibition was active: -72.6%.
For `CCc1nn2c(=O)c(S(=O)(=O)Nc3cccc(F)c3)c(C)nc2s1`, the activity change, negative = inhibition was inconclusive: -51%.
In the case of `O=C(Nc1cccc(-c2ccc(N3CCCCC3)nn2)c1)C(F)(F)F`, the activity change, negative = inhibition is reported as inconclusive: -48.6%.
In the case of `COc1ccc(/C=C2\CCCC3C2=NN(C(=O)COC(=O)CNC(=O)c2ccccc2)C3c2ccc(OC)cc2)cc1` (stereo unspecified), the activity change, negative = inhibition is reported as inconclusive: -49.7%.
For `CCOC(=O)c1c(CN(C)C)n(C)c2ccc(OC(C)=O)cc12`, the activity change, negative = inhibition was inconclusive: -52.3%.
With `Cc1ccc(S(=O)(=O)NCCc2nc3ccccc3[nH]2)cc1` the activity change, negative = inhibition was inactive: -3.11%.
